Article doi:10.1101/2022.03.21.485104

System: Irc3op (Ogataea polymorpha NCYC 495 leu1.1)
Experiment: fluorescence anisotropy
Conditions: no ATP
[1] = Kd less than 3-fold that of longer DNA

| Sequence | binding result | other results |
| --- | --- | --- |
| GTCGGATCCTCTAGACAGCTCCATGATCACTGGCACTGGTAGAATTCGGC / CAACGTCATAGACGATTACATTGCTACATGGAGCTGTCTAGAGGATCCGA / GCCGAATTCTACCAGTGCCA [124g (oligo 6 for 4)] | binds | – |
| GTCGGATCCTCTAGACAGCTCCATGATCACTGGCACTGGTAGAATTCGGC / CAACGTCATAGACGATTACATTGCTACATGGAGCTGTCTAGAGGATCCGA / ATGTAATCGTCTATGACGTT / TGCCGAATTCTACCAGTGCCAGTGATAC [123g4h (gapped lagging, leading flap)] | – | binding result (weaker than without flap): binds more weakly |
| GTCGGATCCTCTAGACAGCTCCATGATCACTGGCACTGGTAGAATTCGGC / CAACGTCATAGACGATTACATTGCTACATGGAGCTGTCTAGAGGATCCGA [12 (fork, no nascent strands)] | binds | – |
| GTCGGATCCTCTAGACAGCTCCATGATCACTGGCACTGGTAGAATTCGGC / CAACGTCATAGACGATTACATTGCTACATGGAGCTGTCTAGAGGATCCGA / TGCCGAATTCTACCAGTGCCAGTGATAC [124h] | binds | – |
| GATCCAACCGCA [ss12] | – | binding result [1]: binds more weakly |
| GTCGGATCCTCTAGACAGCTCCATGATCACTGGCACTGGTAGAATTCGGC / CAACGTCATAGACGATTACATTGCTACATGGAGCTGTCTAGAGGATCCGA / TGCCGAATTCTACCAGTGCCAGTGAT [124] | binds | – |
| GTCGGATCCTCTAGACAGCTCCATGATCACTGGCACTGGTAGAATTCGGC / CAACGTCATAGACGATTACATTGCTACATGGAGCTGTCTAGAGGATCCGA / TGCCGAATTCTACCAGTGCCAGTGATGGACATCTTTGCCCACGTTGACCC / TGGGTCAACGTGGGCAAAGATGTCCTAGCAATGTAATCGTCTATGACGTT [X0] | binds | – |
| GTCGGATCCTCTAGACAGCTCCATGATCACTGGCACTGGTAGAATTCGGC / CAACGTCATAGACGATTACATTGCTACATGGAGCTGTCTAGAGGATCCGA / ATGTAATCGTCTATGACGTT [123g (oligo 5 for 3)] | binds | – |
| GTCGGATCCTCTAGACAGCTCCATGATCACTGGCACTGGTAGAATTCGGC / CAACGTCATAGACGATTACATTGCTACATGGAGCTGTCTAGAGGATCCGA / TAGCAATGTAATCGTCTATGACGTT / TGCCGAATTCTACCAGTGCCAGTGATAC [1234h (leading-strand flap)] | – | binding result (weaker than without flap): binds more weakly |
| TGGGTCAACGTGGGCAAAGATGTCCTAGCAATGTAATCGTCTATGACGTT / GACGCTGCCGAATTCTGGCTTGCTAGGACATCTTTGCCCACGTTGACCC / CAACGTCATAGACGATTACATTGCTAGGACATGCTGTCTAGAGACTATCGA / ATCGATAGTCTCTAGACAGCATGTCCTAGCAAGCCAGAATTCGGCAGCGT [X12] | binds | – |
| GTCGGATCCTCTAGACAGCTCCATGATCACTGGCACTGGTAGAATTCGGC / CAACGTCATAGACGATTACATTGCTACATGGAGCTGTCTAGAGGATCCGA / TAGCAATGTAATCGTCTATGACGTT [123] | binds | – |
| GTCGGATCCTCTAGACAGCTCCATGATCACTGGCACTGGTAGAATTCGGC / CAACGTCATAGACGATTACATTGCTACATGGAGCTGTCTAGAGGATCCGA / GTTAGCAATGTAATCGTCTATGACGTT [123h] | binds | – |
| GTCGGATCCTCTAGACAGCTCCATGATCACTGGCACTGGTAGAATTCGGC / CAACGTCATAGACGATTACATTGCTACATGGAGCTGTCTAGAGGATCCGA / ATGTAATCGTCTATGACGTT / TGCCGAATTCTACCAGTGCCAGTGAT [123g4 (gapped lagging)] | binds | – |
| GATCCAACCGCA (double strand) [ds12] | – | binding result [1]: binds more weakly |
| GTCGGATCCTCTAGACAGCTCCATGATCACTGGCACTGGTAGAATTCGGC / CAACGTCATAGACGATTACATTGCTACATGGAGCTGTCTAGAGGATCCGA / TAGCAATGTAATCGTCTATGACGTT / TGCCGAATTCTACCAGTGCCAGTGAT [1234] | binds | – |

The exact form of at least one protein or probe is not confirmed. A weaker result is weaker than the reference pair of the same experiment. At least one verdict rests on a figure or table, not on a statement of the authors.
